Data: PMC10651859
A negative result means that nothing was seen under these conditions. For some assays here: The exact form of at least one protein or probe is not confirmed. For some assays here: Where cells or extracts were used, other partners may take part.

The chains behind the UniProt entries cited, without tags or fusion partners. Where a name states a change or a piece, a line headed by the entry shows the natural chain unless it says otherwise. Residues count along the entry.
UniProt P02769, 25-607: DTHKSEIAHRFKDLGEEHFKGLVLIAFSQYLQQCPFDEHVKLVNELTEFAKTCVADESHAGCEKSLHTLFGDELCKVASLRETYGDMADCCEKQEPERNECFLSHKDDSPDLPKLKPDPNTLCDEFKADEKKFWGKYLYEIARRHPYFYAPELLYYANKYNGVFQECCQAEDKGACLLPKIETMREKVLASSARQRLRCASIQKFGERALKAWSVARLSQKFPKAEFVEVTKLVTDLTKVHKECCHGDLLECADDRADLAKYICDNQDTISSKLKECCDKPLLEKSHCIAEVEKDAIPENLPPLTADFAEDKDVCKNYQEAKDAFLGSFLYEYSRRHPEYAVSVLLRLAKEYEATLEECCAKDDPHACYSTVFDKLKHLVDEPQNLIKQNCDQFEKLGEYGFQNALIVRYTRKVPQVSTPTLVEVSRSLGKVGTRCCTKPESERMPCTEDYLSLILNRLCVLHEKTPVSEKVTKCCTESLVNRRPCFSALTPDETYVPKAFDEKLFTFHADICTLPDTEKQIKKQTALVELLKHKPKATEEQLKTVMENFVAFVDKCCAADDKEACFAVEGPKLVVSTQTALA
UniProt Q04609: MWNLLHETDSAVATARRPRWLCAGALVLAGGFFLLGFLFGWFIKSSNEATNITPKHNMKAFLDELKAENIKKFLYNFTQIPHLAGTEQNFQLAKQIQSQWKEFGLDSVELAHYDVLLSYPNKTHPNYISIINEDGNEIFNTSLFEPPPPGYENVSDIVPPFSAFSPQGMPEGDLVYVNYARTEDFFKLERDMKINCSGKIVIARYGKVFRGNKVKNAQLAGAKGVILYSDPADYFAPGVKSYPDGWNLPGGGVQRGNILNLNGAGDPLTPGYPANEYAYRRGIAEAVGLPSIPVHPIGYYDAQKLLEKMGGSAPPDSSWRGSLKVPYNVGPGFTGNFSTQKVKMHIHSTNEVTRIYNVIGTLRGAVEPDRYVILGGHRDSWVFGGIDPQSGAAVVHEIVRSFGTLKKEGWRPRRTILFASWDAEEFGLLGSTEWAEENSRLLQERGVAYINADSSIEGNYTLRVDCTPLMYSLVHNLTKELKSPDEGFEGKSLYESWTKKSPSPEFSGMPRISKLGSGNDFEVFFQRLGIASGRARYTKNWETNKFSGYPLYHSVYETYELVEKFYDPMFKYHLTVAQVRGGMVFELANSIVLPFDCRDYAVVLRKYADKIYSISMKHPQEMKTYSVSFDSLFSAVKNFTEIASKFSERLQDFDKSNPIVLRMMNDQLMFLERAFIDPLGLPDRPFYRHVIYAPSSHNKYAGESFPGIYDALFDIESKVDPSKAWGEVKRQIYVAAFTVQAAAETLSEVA

Assays:
BSA = BSA (UniProt P02769); assay: AuNP aggregate disassembly (DLS); conditions: BSA up to 500 uM; Rev1 3' C3 thiol; Rev2 5' C6 thiol; 1x PBS pH 7.4; 37 C for 30 min stated for the initial 50 pM hrPSMA screening; commercial protein; label: 13 nm gold nanoparticles on Rev1 and Rev2; folded or branched DNA
[1] = molecular target: PSMA on intact LNCaP SEVs (UniProt Q04609); assay: AuNP aggregate disassembly (plasmon peak shift); conditions: intact SEVs, authors suggest steric hindrance by membrane; Rev1 3' C3 thiol; Rev2 5' C6 thiol; 1x PBS pH 7.4; 37 C for 30 min stated for the initial 50 pM hrPSMA screening; native protein; label: 13 nm gold nanoparticles on Rev1 and Rev2; folded or branched DNA
[2] = molecular target: PSMA in LNCaP SEV protein extract (UniProt Q04609); assay: AuNP aggregate disassembly (plasmon peak shift); conditions: Rev1 3' C3 thiol, Rev2 5' C6 thiol, 1x PBS pH 7.4, 37 C for 30 min stated for the initial 50 pM hrPSMA screening, protein in an extract, label: 13 nm gold nanoparticles on Rev1 and Rev2, folded or branched DNA

Row | Sequence | binding result (BSA) | binding result [1] | binding result ([2]; significant from 50 pM PSMA equivalent, PSMA-negative PC-3 extract gave no change) | binding result ([2]; LNCaP SEV extract)
1 | CTGTGACTCATCTGTGAAGGGCGGCGTTTTCGCTTTTGCGTTTTGGGTCATCTGCTTACGATAGCAATGCT / CACAGATGAGTCACAG / AAAACGCCGCCCTT [aPSMA:Rev1:Rev2 (aPSMA-AuNPs-Aggregate)] | no binding | no binding | binds | –
2 | CTGTGACTCATCTGTGAAGGGCGGCGTTTTATATGTTACCGTCTAAGTACTCTGTTCCGCGCCGTGTGTTG / CACAGATGAGTCACAG / AAAACGCCGCCCTT [Control:Rev1:Rev2 (C-AuNPs-Aggregate)] | no binding | – | – | no binding
